Test results published in the supplement of paper PMC10849652.
Some of the results follow.

Sequences of proteins named here, by UniProt entry; tags and fusion partners are left off. A change or cut given only in a name is not applied to a line headed by its entry.
UniProt Q96JB3: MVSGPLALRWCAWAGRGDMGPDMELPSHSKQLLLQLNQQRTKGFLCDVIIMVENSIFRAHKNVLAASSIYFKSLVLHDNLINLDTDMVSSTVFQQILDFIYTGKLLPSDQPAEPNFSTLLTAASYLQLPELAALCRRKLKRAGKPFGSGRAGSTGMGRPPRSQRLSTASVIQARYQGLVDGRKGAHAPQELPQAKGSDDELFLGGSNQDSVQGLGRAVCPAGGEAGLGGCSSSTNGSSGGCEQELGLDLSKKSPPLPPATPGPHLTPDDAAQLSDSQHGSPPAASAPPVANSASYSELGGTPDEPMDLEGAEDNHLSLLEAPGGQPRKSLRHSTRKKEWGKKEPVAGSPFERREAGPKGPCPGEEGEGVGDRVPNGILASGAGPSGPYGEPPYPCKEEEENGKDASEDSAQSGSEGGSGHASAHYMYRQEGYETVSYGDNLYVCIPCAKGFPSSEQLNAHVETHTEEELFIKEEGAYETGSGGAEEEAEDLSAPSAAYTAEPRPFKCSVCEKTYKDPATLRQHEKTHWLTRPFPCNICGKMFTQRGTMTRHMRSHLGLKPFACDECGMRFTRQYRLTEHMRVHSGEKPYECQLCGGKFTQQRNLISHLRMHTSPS
UniProt Q86YV9: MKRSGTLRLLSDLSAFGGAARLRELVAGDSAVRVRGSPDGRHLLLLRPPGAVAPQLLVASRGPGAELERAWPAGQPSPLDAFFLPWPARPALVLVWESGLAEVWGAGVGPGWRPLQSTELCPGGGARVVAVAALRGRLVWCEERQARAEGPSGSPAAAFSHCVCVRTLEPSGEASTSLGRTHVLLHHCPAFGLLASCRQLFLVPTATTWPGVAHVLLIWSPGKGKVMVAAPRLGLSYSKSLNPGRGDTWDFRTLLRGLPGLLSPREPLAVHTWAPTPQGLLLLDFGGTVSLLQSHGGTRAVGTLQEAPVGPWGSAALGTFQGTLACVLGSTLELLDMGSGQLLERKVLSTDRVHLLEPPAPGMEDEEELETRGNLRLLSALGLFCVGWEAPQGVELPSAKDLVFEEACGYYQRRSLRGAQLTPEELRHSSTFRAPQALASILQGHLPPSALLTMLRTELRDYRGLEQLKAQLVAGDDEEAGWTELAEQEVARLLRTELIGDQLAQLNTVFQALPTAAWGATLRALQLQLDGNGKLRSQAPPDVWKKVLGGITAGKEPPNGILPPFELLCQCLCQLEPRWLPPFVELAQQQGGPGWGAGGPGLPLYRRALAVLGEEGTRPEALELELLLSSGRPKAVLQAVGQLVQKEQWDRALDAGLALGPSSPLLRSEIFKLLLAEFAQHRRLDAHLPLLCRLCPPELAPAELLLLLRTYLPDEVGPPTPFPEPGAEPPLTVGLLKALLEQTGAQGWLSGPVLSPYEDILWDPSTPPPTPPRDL
UniProt Q96MH2: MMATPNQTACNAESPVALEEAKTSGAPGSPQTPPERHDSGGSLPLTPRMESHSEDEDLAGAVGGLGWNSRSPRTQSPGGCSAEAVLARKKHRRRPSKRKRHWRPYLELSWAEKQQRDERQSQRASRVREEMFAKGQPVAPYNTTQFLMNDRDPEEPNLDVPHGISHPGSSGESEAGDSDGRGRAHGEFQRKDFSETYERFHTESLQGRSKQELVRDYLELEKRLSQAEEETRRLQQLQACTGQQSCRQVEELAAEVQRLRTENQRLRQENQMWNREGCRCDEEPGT
UniProt Q9NRZ9: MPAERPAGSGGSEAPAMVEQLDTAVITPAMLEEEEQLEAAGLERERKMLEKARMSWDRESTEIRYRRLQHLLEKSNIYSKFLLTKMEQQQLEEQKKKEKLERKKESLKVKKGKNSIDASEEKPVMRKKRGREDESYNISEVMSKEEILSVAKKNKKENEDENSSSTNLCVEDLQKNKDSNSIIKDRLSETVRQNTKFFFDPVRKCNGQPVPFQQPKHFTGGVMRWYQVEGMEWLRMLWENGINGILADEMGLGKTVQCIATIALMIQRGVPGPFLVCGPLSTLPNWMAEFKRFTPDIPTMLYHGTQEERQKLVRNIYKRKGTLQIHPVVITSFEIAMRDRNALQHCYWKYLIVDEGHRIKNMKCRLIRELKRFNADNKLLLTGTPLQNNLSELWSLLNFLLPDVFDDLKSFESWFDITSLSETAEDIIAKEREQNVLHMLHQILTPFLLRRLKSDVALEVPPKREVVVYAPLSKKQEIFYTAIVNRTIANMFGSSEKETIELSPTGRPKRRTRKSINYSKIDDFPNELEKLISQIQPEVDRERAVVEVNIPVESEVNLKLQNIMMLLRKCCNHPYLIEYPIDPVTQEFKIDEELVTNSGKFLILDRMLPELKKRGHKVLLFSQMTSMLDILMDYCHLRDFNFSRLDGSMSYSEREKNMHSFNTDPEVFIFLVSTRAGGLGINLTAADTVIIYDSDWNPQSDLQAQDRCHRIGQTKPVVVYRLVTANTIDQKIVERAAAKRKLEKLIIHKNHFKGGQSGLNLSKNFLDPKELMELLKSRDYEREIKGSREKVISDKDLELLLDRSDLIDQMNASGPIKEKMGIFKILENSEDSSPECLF
UniProt Q9BW72: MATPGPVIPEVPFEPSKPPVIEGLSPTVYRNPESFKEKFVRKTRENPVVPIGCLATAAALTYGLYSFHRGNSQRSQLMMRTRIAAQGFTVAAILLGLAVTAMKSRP
UniProt Q15034: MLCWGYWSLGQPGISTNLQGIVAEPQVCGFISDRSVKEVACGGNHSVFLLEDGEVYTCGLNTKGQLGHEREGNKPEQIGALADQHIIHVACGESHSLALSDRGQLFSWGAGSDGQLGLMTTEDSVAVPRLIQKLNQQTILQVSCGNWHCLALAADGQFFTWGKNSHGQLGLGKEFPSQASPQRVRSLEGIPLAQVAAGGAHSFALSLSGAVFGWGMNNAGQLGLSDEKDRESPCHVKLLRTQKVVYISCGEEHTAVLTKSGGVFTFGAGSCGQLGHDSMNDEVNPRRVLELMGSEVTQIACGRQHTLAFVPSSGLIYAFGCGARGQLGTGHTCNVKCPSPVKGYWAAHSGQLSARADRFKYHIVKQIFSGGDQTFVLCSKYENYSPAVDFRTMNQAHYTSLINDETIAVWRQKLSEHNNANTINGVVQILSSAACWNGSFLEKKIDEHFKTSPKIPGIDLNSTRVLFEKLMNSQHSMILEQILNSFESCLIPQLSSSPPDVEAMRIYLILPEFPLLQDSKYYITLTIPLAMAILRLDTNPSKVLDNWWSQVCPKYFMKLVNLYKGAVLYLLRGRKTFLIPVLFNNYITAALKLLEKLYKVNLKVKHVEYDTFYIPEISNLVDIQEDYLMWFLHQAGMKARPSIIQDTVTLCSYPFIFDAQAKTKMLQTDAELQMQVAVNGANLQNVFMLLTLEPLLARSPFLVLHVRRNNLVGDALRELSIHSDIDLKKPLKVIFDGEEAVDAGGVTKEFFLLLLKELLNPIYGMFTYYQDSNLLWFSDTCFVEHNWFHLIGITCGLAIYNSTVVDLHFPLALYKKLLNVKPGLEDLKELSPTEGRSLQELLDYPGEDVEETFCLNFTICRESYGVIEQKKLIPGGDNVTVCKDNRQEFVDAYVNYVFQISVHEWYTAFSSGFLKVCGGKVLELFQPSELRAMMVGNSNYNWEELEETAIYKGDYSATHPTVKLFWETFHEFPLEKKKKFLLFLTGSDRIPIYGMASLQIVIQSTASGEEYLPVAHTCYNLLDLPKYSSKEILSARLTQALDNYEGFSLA
UniProt P00738: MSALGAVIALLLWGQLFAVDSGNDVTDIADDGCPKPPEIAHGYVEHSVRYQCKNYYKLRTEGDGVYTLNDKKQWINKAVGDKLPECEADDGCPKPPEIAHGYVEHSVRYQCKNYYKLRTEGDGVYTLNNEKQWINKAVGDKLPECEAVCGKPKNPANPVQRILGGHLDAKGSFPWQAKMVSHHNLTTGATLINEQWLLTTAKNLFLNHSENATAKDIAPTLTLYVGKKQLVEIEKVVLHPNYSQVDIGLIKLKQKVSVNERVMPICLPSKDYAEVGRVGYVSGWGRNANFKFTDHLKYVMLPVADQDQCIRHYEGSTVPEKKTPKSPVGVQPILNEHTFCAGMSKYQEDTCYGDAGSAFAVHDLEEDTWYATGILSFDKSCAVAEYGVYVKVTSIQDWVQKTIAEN
UniProt Q14469: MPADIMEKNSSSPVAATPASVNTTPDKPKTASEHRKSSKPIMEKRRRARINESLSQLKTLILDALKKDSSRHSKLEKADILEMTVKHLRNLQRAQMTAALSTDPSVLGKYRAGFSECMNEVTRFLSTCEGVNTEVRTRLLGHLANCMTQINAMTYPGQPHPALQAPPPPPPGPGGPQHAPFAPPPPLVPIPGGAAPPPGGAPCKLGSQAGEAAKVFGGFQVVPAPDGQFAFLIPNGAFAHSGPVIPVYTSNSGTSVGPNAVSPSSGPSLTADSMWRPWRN
UniProt P14210, whole entry, looked up: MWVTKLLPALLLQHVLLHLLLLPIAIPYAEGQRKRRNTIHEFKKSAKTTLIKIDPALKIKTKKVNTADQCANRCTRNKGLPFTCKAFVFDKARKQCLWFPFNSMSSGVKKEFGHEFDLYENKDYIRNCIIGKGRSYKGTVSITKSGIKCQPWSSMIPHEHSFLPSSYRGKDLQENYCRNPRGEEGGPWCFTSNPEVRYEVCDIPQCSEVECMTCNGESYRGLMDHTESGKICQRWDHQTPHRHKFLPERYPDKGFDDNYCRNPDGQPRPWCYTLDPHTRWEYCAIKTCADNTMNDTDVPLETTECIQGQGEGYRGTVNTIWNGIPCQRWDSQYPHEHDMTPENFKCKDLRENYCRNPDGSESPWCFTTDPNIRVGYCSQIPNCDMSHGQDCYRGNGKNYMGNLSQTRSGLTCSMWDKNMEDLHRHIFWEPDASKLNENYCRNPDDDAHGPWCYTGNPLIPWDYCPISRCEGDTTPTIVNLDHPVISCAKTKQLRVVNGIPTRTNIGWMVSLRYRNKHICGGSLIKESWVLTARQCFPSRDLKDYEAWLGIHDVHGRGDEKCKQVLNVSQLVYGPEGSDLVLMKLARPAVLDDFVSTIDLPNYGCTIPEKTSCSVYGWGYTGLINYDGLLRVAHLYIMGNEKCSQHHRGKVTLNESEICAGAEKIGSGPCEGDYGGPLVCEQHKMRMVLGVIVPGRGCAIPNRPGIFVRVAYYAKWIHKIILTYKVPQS
UniProt Q9UGU5: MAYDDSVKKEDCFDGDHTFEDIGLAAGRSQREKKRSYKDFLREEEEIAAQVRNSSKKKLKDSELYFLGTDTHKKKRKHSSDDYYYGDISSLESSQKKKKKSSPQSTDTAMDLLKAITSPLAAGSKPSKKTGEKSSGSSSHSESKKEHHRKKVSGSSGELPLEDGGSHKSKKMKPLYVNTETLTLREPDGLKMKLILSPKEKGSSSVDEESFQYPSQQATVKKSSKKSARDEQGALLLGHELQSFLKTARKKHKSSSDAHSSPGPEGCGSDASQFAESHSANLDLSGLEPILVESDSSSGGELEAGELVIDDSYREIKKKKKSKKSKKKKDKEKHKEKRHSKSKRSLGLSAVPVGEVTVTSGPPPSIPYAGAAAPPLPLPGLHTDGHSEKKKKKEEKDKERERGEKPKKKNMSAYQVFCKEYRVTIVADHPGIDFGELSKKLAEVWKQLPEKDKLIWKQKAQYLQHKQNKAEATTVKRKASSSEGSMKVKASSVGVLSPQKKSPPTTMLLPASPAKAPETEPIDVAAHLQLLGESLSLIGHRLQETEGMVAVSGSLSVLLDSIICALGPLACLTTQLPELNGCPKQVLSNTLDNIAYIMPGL
UniProt Q9Y241: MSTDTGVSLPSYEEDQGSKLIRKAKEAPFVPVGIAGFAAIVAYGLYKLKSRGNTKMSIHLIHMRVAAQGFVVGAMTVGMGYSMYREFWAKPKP
UniProt P07910: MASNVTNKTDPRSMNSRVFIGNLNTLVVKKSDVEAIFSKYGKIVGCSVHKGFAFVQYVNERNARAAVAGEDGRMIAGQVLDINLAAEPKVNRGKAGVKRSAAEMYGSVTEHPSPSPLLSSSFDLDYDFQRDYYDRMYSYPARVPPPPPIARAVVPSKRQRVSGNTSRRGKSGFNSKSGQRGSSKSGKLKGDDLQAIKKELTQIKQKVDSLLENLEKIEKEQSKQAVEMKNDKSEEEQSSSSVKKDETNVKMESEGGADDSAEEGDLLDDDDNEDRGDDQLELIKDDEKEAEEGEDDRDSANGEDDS
UniProt P15428: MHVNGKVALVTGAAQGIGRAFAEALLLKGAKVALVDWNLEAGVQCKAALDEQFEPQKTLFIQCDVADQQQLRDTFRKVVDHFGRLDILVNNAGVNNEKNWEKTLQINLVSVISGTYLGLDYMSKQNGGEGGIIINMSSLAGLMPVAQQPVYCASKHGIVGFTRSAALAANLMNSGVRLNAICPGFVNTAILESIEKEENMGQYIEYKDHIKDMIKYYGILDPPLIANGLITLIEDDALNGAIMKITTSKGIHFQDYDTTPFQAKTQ

Tests used:
Experiment in all cases: log2 fold change, soluble protein after heating vs DMSO (PISA); higher = thermal stabilisation; K562 lysate, 10 uM; active = over 0.2 and 3.5 SD of the protein, either way, in both replicates (recomputed)
[1] = compound: CC(C)C1=C2N=C(C=C(N2N=C1)NCC3=CC=CC=C3)NCCCCCCN
Summary of the method: (§1)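 Values give the log-two fold change in thermal stability against solvent controls, from duplicates. Crude K562 extract at 1 mg/mL protein, made by dounce homogenisation in PBS pH 7.4 with 1 mM MgCl2, was treated with 10 μM compound for 30 min. After 3 min heating across 48°C-58°C, aliquots were pooled, adjusted to 0.5% NP-40 at 4°C and centrifuged at 21,000xg for 90 min. The supernatant was measured by TMTpro 16plex LC-MS/MS with channel sums equalised.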

[2] = compound: CC1=C(C(CC(=O)N1)C2=CC=C(C=C2)C(F)(F)F)C(=O)NC3=C(C=C4C(=C3)C=NN4)F
Summary of the method: as §1

[3] = compound: CC1=C(C=C(C=C1)NC(=O)C2=CC(=CC=C2)C(C)(C)C#N)NC3=CC4=C(C=C3)N=CN(C4=O)C
Summary of the method: as §1

[4] = compound: CCCS(=O)(=O)Nc1ccc(F)c(C(=O)c2c[nH]c3ncc(-c4ccc(Cl)cc4)cc23)c1F [vemurafenib]
Summary of the method: as §1

[5] = compound: CN1CCN(c2nc(C3=C(c4c[nH]c5ccccc45)C(=O)NC3=O)c3ccccc3n2)CC1 [sotrastaurin]
Summary of the method: as §1

[6] = compound: CC1=C(C2=C(C=C1)C(=O)C3=CC=CC=C3N2CCCN)C
Summary of the method: as §1

[7] = compound: CCn1cc(-c2ccnc3[nH]c(-c4cccc(CN(C)C)c4)cc23)c(-c2ccc(NC(=O)N(C)C)cc2)n1
Summary of the method: as §1

[8] = compound: CN1CCC(CNc2ccc3ncc(-c4cccc(OC(F)(F)F)c4)n3n2)CC1
Summary of the method: as §1

[9] = compound: CN1CCN(CCOc2cc(OC3CCOCC3)c3c(Nc4c(Cl)ccc5c4OCO5)ncnc3c2)CC1 [saracatinib]
Summary of the method: as §1

[10] = compound: CC[C@@H]1C(=O)N(C)c2cnc(Nc3ccc(C(=O)NC4CCN(C)CC4)cc3OC)nc2N1C1CCCC1
Summary of the method: as §1

[11] = compound: CC(=O)c1cnc2ccc(-c3cc(Cl)c(O)c(Cl)c3)nc2c1N[C@H]1CC[C@H](CN(C)C)CC1
Summary of the method: as §1

[12] = compound: CC(C)(C)Cn1c(N)nc2ccc(-c3[nH]c(C(C)(C)C)nc3-c3ccc(F)cc3)nc21 [ralimetinib]
Summary of the method: as §1

[13] = compound: CC(C)(O)CC(=O)NCCn1ccc2ncnc(Nc3ccc(Oc4cccc(C(F)(F)F)c4)c(Cl)c3)c21
Summary of the method: as §1

[14] = compound: CC1=C(C=C(C=C1)NC(=O)C2=CC(=CC=C2)N(C)C)NC(=O)C3=CC=C(C=C3)O
Summary of the method: as §1

[15] = compound: CC1=CC=C(C=C1)SC2=C3C=C(SC3=CN=C2)C(=O)N
Summary of the method: as §1

[16] = compound: CCCS(=O)(=O)Nc1ccc(F)c(C(=O)c2c[nH]c3ncc(Cl)cc23)c1F
Summary of the method: as §1

[17] = compound: CC[C@@H]1C(=O)N(C)c2cnc(Nc3ccc(C(=O)N[C@H]4CC[C@H](N5CCN(CC6CC6)CC5)CC4)cc3OC)nc2N1C(C)C [volasertib]
Summary of the method: as §1

[18] = compound: CCn1c(C(=O)N(C2CC2)C2CC2)cc2c3c(ncn3C)c(Nc3cc(C)n(C)n3)nc21
Summary of the method: as §1

Measured: log2 fold change

HELZ2 (UniProt Q9BYK8)
inactive: [1] -0.143 | [2] -0.033 | [3] -0.112 | [4] -0.02 | [5] -0.28

HOOK1 (UniProt Q9UJC3)
inactive: [1] -0.027 | [6] -0.007 | [7] -0.558 | [8] 0.182 | [9] 0.046

HIC2 isoform 2 (UniProt Q96JB3)
inactive: [3] 0.074 | [5] 0.083

HPS6 (UniProt Q86YV9)
inactive: [2] 0.004 | [6] -0.374 | [3] -0.113 | [10] -0.01 | [7] -0.169 | [8] -0.277 | [9] 0.165 | [5] -0.04

HP1BP3 isoform 5 (UniProt Q5SSJ5)
inactive: [1] -0.019

HRAS (UniProt P01112)
inactive: [11] -0.018 | [12] -0.025 | [13] 0.07 | [1] 0 | [2] -0.016 | [6] -0.063 | [3] 0.006 | [14] 0.081 | [15] 0.08 | [16] 0.008 | [10] 0.078 | [17] -0.041 | [18] -0.068 | [9] -0.008 | [5] -0.037

HPS3 (UniProt Q969F9)
inactive: [12] -0.096 | [13] -0.032 | [1] -0.043 | [2] 0.016 | [6] -0.071 | [3] 0.145 | [14] -0.013 | [4] 0.146 | [10] 0.038 | [18] 0.114 | [7] -0.027 | [8] -0.079 | [9] 0.048 | [5] 0.173

HEXIM2 (UniProt Q96MH2)
inactive: [12] -0.294 | [13] -0.192 | [1] 0.057 | [6] -0.059 | [3] 0.008 | [14] 0.02 | [18] 0.335 | [9] 0.013 | [5] -0.003

HELLS (UniProt Q9NRZ9)
inactive: [12] 0.058 | [13] 0.004 | [1] 0.045 | [2] 0.023 | [6] -0.056 | [3] -0.12 | [14] -0.055 | [10] 0.104 | [18] -0.025 | [9] -0.015 | [5] -0.043

HIGD2A (UniProt Q9BW72)
inactive: [2] 0.006 | [6] -0.069 | [3] -0.099 | [7] 0.007 | [8] 0.166 | [9] 0.146 | [5] 0.123

HMX3 (UniProt A6NHT5)
inactive: [1] -0.013

HERC3 (UniProt Q15034)
inactive: [12] 0.032 | [13] -0.062 | [6] 0.279 | [3] -0.012 | [14] -0.011 | [10] 0.343 | [18] 0.016 | [9] -0.1 | [5] 0.124

HP (UniProt P00738)
inactive: [12] -0.21 | [13] 0.62 | [6] -0.001 | [14] 0.032 | [18] -0.104 | [7] 0.869 | [8] -0.73 | [9] -0.106

HECW2 (UniProt Q9P2P5)
inactive: [12] 0.106 | [13] -0.148 | [1] -0.036 | [2] 0.019 | [6] -0.091 | [3] 0.116 | [14] 0.073 | [4] 0.026 | [10] -0.213 | [18] -0.04 | [9] 0.055 | [5] 0.065

HNRNPU isoform 2 (UniProt Q00839)
inactive: [6] 0.004 | [9] 0.065

HLA-E (UniProt P13747)
inactive: [1] -0.003 | [10] 0.053

HES1 (UniProt Q14469)
inactive: [11] -0.031 | [12] 0.104 | [13] 0.031 | [1] 0.022 | [2] -0.013 | [6] -0.116 | [14] -0.082 | [15] -0.082 | [16] 0.066 | [10] -0.129 | [17] 0.022 | [18] 0.526 | [7] 0.281 | [8] 0.106 | [9] -0.224

HMGCR isoform 3 (UniProt P04035)
inactive: [3] -0.018 | [10] -0.018 | [5] -0.028

HNRNPD (UniProt D6RF44)
inactive: [2] 0.111 | [3] -0.334 | [5] 0.079

HGF (UniProt P14210)
inactive: [12] 0.097 | [13] -0.081 | [1] -0.001 | [3] 0.087 | [14] -0.031 | [18] 0.011 | [7] 0.154 | [8] 0.037 | [5] -0.09

HLA-DRA
inactive: [10] 0.139

HMGXB3 (UniProt Q12766)
inactive: [10] 0.018

HS6ST1 (UniProt O60243)
inactive: [1] 0.094

HMGXB4 (UniProt Q9UGU5)
inactive: [1] 0.012 | [4] -0.13 | [10] 0.104

HSP90AA2P (UniProt Q14568)
inactive: [3] -0.008 | [10] 0.085 | [5] 0.119

HIGD1A isoform 2 (UniProt Q9Y241)
inactive: [11] -0.121 | [12] 0.136 | [13] -0.026 | [1] 0.039 | [6] -0.045 | [14] -0.099 | [15] -0.002 | [16] -0.165 | [17] 0.064 | [18] -0.013 | [7] -0.222 | [8] -0.127 | [9] 0.115

HNRNPM (UniProt M0R019)
inactive: [4] -0.137

Pulled one by one from above (2):
HLA-E (UniProt P13747)
inactive: [1] -0.003 | [10] 0.053

HECW2 (UniProt Q9P2P5)
inactive: [12] 0.106 | [13] -0.148 | [1] -0.036 | [2] 0.019 | [6] -0.091 | [3] 0.116 | [14] 0.073 | [4] 0.026 | [10] -0.213 | [18] -0.04 | [9] 0.055 | [5] 0.065

Continued.

HNRNPC isoform 2 (UniProt P07910)
inactive: [6] -0.106 | [9] 0.015

HPGD (UniProt P15428)
inactive: [6] 0.052 | [10] 0.05 | [7] -0.08 | [8] 0.015 | [9] -0.103
